{"source": "PubChem BioAssay AID686943, Drosophila RNAi Screening Center, 2013", "assay": "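Knockdowns that increase or decrease active ERK after insulin receptor stimulation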 (primary screen)", "cell system": "Drosophila S2R+ haemocyte-like cells expressing YFP-tagged ERK (Rolled)", "reagent": "long dsRNA against Drosophila genes", "challenge": "insulin stimulation versus unstimulated cells; dose and duration not given", "measured": "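Antibody staining for doubly phosphorylated ERK divided by ERK-YFP signal, as plate z-scores, in insulin-treated and untreated cells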", "scale": "replicate 1, z-score of dpERK with insulin: higher = more active ERK per ERK-YFP after insulin", "note": "In all, the deposit lists about 23,000 reagents; shown is a random part of those with a known target gene and a result. 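Extra replicates exist only for a retested subset of genes; insulin dose and duration not given; both raised and lowered dpERK matter.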 Not all columns of the deposit are shown. Reagent sequences are not shown. Not given: the amount of reagent, the time to read-out."}
{"target gene": "Cyp6a9", "PubChem SID": "SID104187177", "replicate 1, z-score of dpERK with insulin": 0.99}
{"target gene": "CG42288", "PubChem SID": "SID104186173", "replicate 1, z-score of dpERK with insulin": 0.34}
{"target gene": "tum", "PubChem SID": "SID104187367", "replicate 1, z-score of dpERK with insulin": -0.48}
{"target gene": "Pgam5-2", "PubChem SID": "SID104184070", "replicate 1, z-score of dpERK with insulin": -0.29}
{"target gene": "ImpL1", "PubChem SID": "SID104190989", "replicate 1, z-score of dpERK with insulin": 0.32}
{"target gene": "CG43072", "PubChem SID": "SID104191480", "replicate 1, z-score of dpERK with insulin": 0.06}
{"target gene": "SdhC", "PubChem SID": "SID104195880", "replicate 1, z-score of dpERK with insulin": -0.29}
{"target gene": "Lim3", "PubChem SID": "SID104182267", "replicate 1, z-score of dpERK with insulin": 1.09}
{"target gene": "Lim3", "PubChem SID": "SID104183155", "replicate 1, z-score of dpERK with insulin": -1.3}
{"target gene": "Lim3", "PubChem SID": "SID104201726", "replicate 1, z-score of dpERK with insulin": -0.26}
{"target gene": "Lim3", "PubChem SID": "SID104202053", "replicate 1, z-score of dpERK with insulin": -1.19}
{"target gene": "CG31949", "PubChem SID": "SID104179902", "replicate 1, z-score of dpERK with insulin": 0.1}
{"target gene": "CG3939", "PubChem SID": "SID104198290", "replicate 1, z-score of dpERK with insulin": 1.42}
{"target gene": "CG13561", "PubChem SID": "SID104183991", "replicate 1, z-score of dpERK with insulin": -0.58}
{"target gene": "heca", "PubChem SID": "SID104196756", "replicate 1, z-score of dpERK with insulin": -1}
{"target gene": "scramb2", "PubChem SID": "SID104188335", "replicate 1, z-score of dpERK with insulin": 0.15}
{"target gene": "CG6685", "PubChem SID": "SID104190487", "replicate 1, z-score of dpERK with insulin": -0.11}
{"target gene": "CG4045", "PubChem SID": "SID104198310", "replicate 1, z-score of dpERK with insulin": 0.92}
{"target gene": "Letm1", "PubChem SID": "SID104184268", "replicate 1, z-score of dpERK with insulin": 0.21}
{"target gene": "CG34202", "PubChem SID": "SID104185699", "replicate 1, z-score of dpERK with insulin": 3.68}
{"target gene": "snRNP-U1-70K", "PubChem SID": "SID104183404", "replicate 1, z-score of dpERK with insulin": 0.64}
{"target gene": "snRNP-U1-70K", "PubChem SID": "SID104201645", "replicate 1, z-score of dpERK with insulin": 1.12}
{"target gene": "LysE", "PubChem SID": "SID104188467", "replicate 1, z-score of dpERK with insulin": 0.96}
{"target gene": "gas", "PubChem SID": "SID104184313", "replicate 1, z-score of dpERK with insulin": 0.01}
{"target gene": "Mccc2", "PubChem SID": "SID104184779", "replicate 1, z-score of dpERK with insulin": 0.04}
{"target gene": "lab", "PubChem SID": "SID104192419", "replicate 1, z-score of dpERK with insulin": -0.5}
{"target gene": "Septin5", "PubChem SID": "SID104186635", "replicate 1, z-score of dpERK with insulin": -0.07}
{"target gene": "Hmbs", "PubChem SID": "SID104188424", "replicate 1, z-score of dpERK with insulin": 0.41}
{"target gene": "Cpr49Aa", "PubChem SID": "SID104186989", "replicate 1, z-score of dpERK with insulin": 0.7}
{"target gene": "CG33217", "PubChem SID": "SID104202266", "replicate 1, z-score of dpERK with insulin": -0.51}
{"target gene": "Mhcl", "PubChem SID": "SID104192922", "replicate 1, z-score of dpERK with insulin": -0.8}
{"target gene": "Mhcl", "PubChem SID": "SID104194008", "replicate 1, z-score of dpERK with insulin": -0.01}
{"target gene": "Mhcl", "PubChem SID": "SID104196545", "replicate 1, z-score of dpERK with insulin": -0.51}
{"target gene": "Swt1", "PubChem SID": "SID104199820", "replicate 1, z-score of dpERK with insulin": -1.4}
{"target gene": "zen", "PubChem SID": "SID104192424", "replicate 1, z-score of dpERK with insulin": -1.07}
{"target gene": "CG12025", "PubChem SID": "SID104188022", "replicate 1, z-score of dpERK with insulin": 0.31}
{"target gene": "emc", "PubChem SID": "SID104188507", "replicate 1, z-score of dpERK with insulin": -2.9}
{"target gene": "spz6", "PubChem SID": "SID104184325", "replicate 1, z-score of dpERK with insulin": -0.53}
{"target gene": "Spn77Ba", "PubChem SID": "SID104190485", "replicate 1, z-score of dpERK with insulin": 0.09}
{"target gene": "Cdc5", "PubChem SID": "SID104188369", "replicate 1, z-score of dpERK with insulin": 2.01}

Reformatted: results already given.
| target gene | PubChem SID | replicate 1, z-score of dpERK with insulin |
| --- | --- | --- |
| CG42288 | SID104186173 | 0.34 |
| tum | SID104187367 | -0.48 |
| Pgam5-2 | SID104184070 | -0.29 |
| ImpL1 | SID104190989 | 0.32 |
